Consider 40 compounds from PubChem BioAssay AID493014 (National Center for Advancing Translational Sciences (NCATS), 2011).

This assay is described as follows: qHTS Assay to Find Inhibitors of Chronic Active B-Cell Receptor Signaling. Conditions: ABC-DLBCL IkBa-CBG/CBR reporter, luminescence ratio (green luciferase fused to IkBa over red control in TMD8 lymphoma cells), 4 h. Put shortly: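 Doxycycline induced both beetle luciferases in TMD8 lymphoma cells; IKK-driven degradation limits the IkappaBalpha-fused green signal, while red luminescence normalises for cell number and nonspecific effects. Compounds tested up to 46 uM, 4 hrs.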
A general note: In qHTS, concentration-response curves come from the screen itself.

The mark [1] stands for this setting: measured here: CBR red luminescence, cell number.
[2] abbreviates: measured here: IkBa-CBG green luminescence.

The other results are listed elsewhere or left out. The main result of the screen is listed elsewhere. These columns were measured beside it and carry no call. The list favours compounds with an active or inconclusive main result. The note in brackets gives the kind of curve behind each potency; many fits are weak.

For `CCCc1noc2c1C(c1cc(Br)ccc1F)C(C#N)=C(N)N2` (centres undefined), the AC50 under setting [1] was 22.4 µM [falling, single point].

As to `Cc1ccc(C(=O)c2coc3ccc(O)c(Cl)c23)cc1`, the AC50 under setting [1] was 1.84 µM [falling, partial curve, poor fit].

In the case of `Cn1c(SCC(=O)c2ccccc2)nnc1-c1ccco1`, under setting [1], the AC50 was 16.4 µM [falling, single point].

Turning to `COc1ccc2nc(C)cc(N/N=C/c3ccc(F)cc3)c2c1`, the AC50 under setting [1] is 11.2 µM [falling, partial curve].

As for `COc1cc(NC(=O)Cc2cccs2)ccc1-n1cnnn1`, the AC50 under setting [1] is 1.84 µM [rising, full curve, poor fit].

As to `COc1cc(NC(=S)NC(=O)c2cc(C)cc(C)c2)ccc1NC(=O)c1cccs1`, the half-maximal activity concentration (AC50) under setting [1] was 18.4 µM [rising, single point].

Turning to `O=C(CC(O)(C(F)(F)F)C(F)(F)F)Nc1ccc(Cl)c(Cl)c1`, the AC50 under setting [1] is 2.59 µM [falling, full curve].

For `CC/C(=N/NC(=O)c1ccccc1)c1ccc(OCCN2CCOCC2)cc1`, under setting [1], the concentration at half-maximal activity (AC50) was 3.66 µM [falling, full curve].

For `Cc1ccc(NC2CCCN(C(=O)c3ccc4[nH]ccc4c3)C2)cc1C` (centres undefined), under setting [1], the AC50 is 35.5 µM [falling, single point].

Take `Cc1cc(C)c2nc(SCCc3ccccc3)nc(C)c2c1`: the half-maximal activity concentration (AC50) under setting [1] was 0.291 µM [rising, partial curve, poor fit].

On to `O=C(Nc1nccs1)c1ccc(Cl)s1`, for which, under setting [1], the AC50 was 13 µM [falling, partial curve, poor fit].

Regarding `CCOC(=O)Cc1csc(NC(=O)Nc2ccc(OC(F)(F)F)cc2)n1`, the AC50 under setting [1] is 11.2 µM [falling, partial curve, poor fit].

With `CCc1cc(C(=O)O)c(NC(=O)/C=C/c2ccc(OC)cc2)s1`, the concentration at half-maximal activity (AC50) under setting [1] was 0.1 µM [rising, full curve, poor fit].

For the compound `CCOC(=O)N1CCN(C(c2ccccc2)c2sc3nc(C)nn3c2O)CC1` (centres undefined), the AC50 under setting [1] is 23.1 µM [rising, single point].

As for `CCc1nn(-c2ccccc2)c2c1-c1cc(OC)c(OC)cc1C1(N2)C(=O)Nc2ccccc21` (centres undefined), the AC50 under setting [1] was 0.366 µM [falling, full curve, poor fit].

As for `Cc1ccsc1-c1nc(CSCC(=O)NCc2ccc3c(c2)OCO3)c(C)o1`, under setting [1], the AC50 is 29.1 µM [falling, single point].

Turning to `COc1ccc(/C=C/C(=O)c2ccccc2)c(OC)c1`, the AC50 under setting [1] was 10 µM [falling, partial curve].

As for `COc1ccc(OCCOCCN2CCOCC2)cc1`, under setting [1], the AC50 is 3.26 µM [falling, single point].

Regarding `N#CCC(=O)N/N=C\c1cc(Br)ccc1OC/C=C/c1ccccc1`, under setting [1], the AC50 is 0.447 µM [rising, partial curve, poor fit].

Regarding `O=C(C[n+]1ccc2ccccc2c1)c1ccc(NC(=O)c2ccccc2)cc1`, the concentration at half-maximal activity (AC50) under setting [1] was 35.5 µM [falling, single point].

`Cc1ccc(S(=O)(=O)Nc2cccc3c2O[C@H](CN(C)Cc2ccc(-c4ccccc4)cc2)[C@@H](C)CN([C@H](C)CO)C3=O)cc1`: under setting [1], the AC50 is 20.6 µM [falling, partial curve, poor fit].

As to `COc1ccc(CNC(=O)C/C(C)=N/NC(=O)c2cc(OC)cc(OC)c2)cc1`, the AC50 under setting [1] is 12.6 µM [falling, partial curve] and the AC50 under setting [2] is 11.2 µM [falling, partial curve].

On to `Cc1cc(C)c(C)c(S(=O)(=O)N2C(=S)NC(=O)C2CC(C)C)c1C` (centres undefined), for which the AC50 under setting [1] is 0.0058 µM [falling, full curve, poor fit].

Turning to `O=[N+]([O-])/C(C(Cl)=C(Cl)Cl)=C(\Nc1ccc(F)cc1)n1cncn1`, the AC50 under setting [1] was 18.4 µM [falling, single point].

For the compound `O=Cc1c(NCCN2CCOCC2)c2ccccc2[nH]c1=O`, under setting [1], the AC50 was 11.2 µM [falling, partial curve].

For `Cc1ccc(C(=O)NCCN2C3=NC[C@H](C(C)C)N3C[C@H]2Cc2ccc(O)cc2)cc1Br`, the AC50 under setting [1] is 10 µM [falling, partial curve, poor fit].

With `O=c1cc(-c2c(F)c(F)c(F)c(F)c2F)oc2ccccc12`, under setting [1], the concentration at half-maximal activity (AC50) was 18.4 µM [falling, single point].

`CCCN1C(=O)C(=O)c2cc(Cl)ccc21`: the AC50 is 18.4 µM [rising, partial curve] under setting [1] and 16.4 µM [falling, partial curve] under setting [2].

Regarding `CC(C)c1ccc(CN(C)C(=O)c2ccc(S(=O)(=O)NCc3ccco3)cc2)cc1`, the concentration at half-maximal activity (AC50) under setting [1] was 3.66 µM [rising, partial curve, poor fit].

Regarding `Cc1cccc(NC(=O)C(=O)NCC2CCCN2S(=O)(=O)c2cccs2)c1C` (centres undefined), the AC50 under setting [1] was 8.2 µM [falling, partial curve, poor fit].

For the compound `O=S(=O)(Nc1cccc2ccccc12)c1cccs1`, the AC50 under setting [1] is 11.2 µM [rising, partial curve].

As to `O=C(Nc1cccc(F)c1)c1ccc(CSc2ccccc2)o1`, the AC50 under setting [1] was 18.4 µM [falling, single point].

Consider `COc1ccc2c(c1)C(=O)[C@H](O)[C@@H](c1ccc(OC)c(Br)c1)O2`, for which the AC50 is 23.1 µM [rising, single point] under setting [1] and 20.6 µM [falling, single point] under setting [2].

As for `Cn1cccc1/C=N/NC(=O)c1cc2ccccc2cc1O`, under setting [1], the AC50 is 1.58 µM [falling, full curve].

On to `COc1ccc(CC(=O)Nc2ccc(-c3ccc4nnc(C)n4n3)cc2)cc1OC`, for which the AC50 by setting is: under setting [1], 3.98 µM [rising, full curve, poor fit]; under setting [2], 12.6 µM [falling, partial curve, poor fit].

For the compound `Cc1ccsc1C(=O)OCc1cc(=O)n2ccsc2n1`, the AC50 under setting [1] is 1.84 µM [falling, full curve].

For `CC(NC(=S)Nc1ccccc1Cl)C(c1ccccc1)N1CCOCC1` (centres undefined), the AC50 under setting [1] is 16.4 µM [falling, partial curve, poor fit].

On to `Cn1c(-c2ccc(F)c(F)c2)cc2onc(-c3ccccc3)c2c1=O`, for which, under setting [1], the AC50 was 0.184 µM [rising, full curve].

As to `Cc1nc(N=C(N)N)nc2ccccc12`, the AC50 under setting [1] was 15.8 µM [falling, partial curve, poor fit].

In the case of `CSCCCNC(=S)Nc1ccc(N2CCOCC2)cc1`, the AC50 under setting [1] was 10 µM [rising, partial curve, poor fit].

Broadly, the AC50 is the midpoint of the concentration-response curve, whichever way the signal moves.
